In publication PMC9652331 one finds binding data, which are given here for one substance.

Chains of the proteins cited; added tags and fusions are not shown.
UniProt Q86U44: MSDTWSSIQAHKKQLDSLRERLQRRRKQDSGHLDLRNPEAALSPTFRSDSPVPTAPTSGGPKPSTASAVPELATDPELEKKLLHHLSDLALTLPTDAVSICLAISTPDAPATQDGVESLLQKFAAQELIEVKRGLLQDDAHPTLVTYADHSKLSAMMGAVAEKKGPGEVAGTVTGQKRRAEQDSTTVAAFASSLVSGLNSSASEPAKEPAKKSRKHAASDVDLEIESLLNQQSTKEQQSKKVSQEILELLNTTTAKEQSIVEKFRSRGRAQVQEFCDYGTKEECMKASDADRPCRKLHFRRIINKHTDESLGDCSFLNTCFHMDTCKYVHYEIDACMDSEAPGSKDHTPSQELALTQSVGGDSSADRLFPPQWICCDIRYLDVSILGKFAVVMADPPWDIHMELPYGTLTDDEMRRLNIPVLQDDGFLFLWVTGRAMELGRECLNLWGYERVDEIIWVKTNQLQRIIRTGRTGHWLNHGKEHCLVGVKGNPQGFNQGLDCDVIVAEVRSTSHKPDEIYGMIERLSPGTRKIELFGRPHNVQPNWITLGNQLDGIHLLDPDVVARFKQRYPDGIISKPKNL

These are yes or no findings as the source states them, for the method shown. Some entries that bind do so weakly or less than the wild type. Where a sequence is shown, tags or fusion partners need not be part of it.

For the experiment, the target named is T1, Zinc finger CCCH domain-containing protein 13 (ZC3H13) (1106–1668), N-Twin-Strep-tag-ZC3H13 (1106–1668) (human) (UniProt Q5T200).
T1 sequence: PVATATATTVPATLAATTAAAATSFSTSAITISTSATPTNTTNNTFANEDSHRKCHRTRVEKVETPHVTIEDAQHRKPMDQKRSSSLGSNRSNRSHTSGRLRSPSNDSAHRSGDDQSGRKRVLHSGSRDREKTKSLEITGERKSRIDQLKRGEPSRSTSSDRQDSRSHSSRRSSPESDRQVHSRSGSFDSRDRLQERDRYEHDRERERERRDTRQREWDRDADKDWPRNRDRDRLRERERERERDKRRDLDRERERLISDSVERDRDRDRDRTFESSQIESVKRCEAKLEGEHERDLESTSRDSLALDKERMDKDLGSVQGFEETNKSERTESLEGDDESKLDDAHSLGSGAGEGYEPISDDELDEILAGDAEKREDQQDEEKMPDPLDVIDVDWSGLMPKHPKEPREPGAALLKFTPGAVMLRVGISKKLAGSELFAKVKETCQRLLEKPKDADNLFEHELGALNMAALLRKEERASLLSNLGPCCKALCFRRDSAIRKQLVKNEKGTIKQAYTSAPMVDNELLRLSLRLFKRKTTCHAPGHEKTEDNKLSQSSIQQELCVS
Briefly: cross-linking; EDC XL-MS of purified MACOM with MAC (Fig. S4e): 5 mM EDC, 50 mM HEPES pH 7.2, 100 mM KCl, 5% glycerol, 25 °C, 3 h; both purified.

Take “methyltransferase-like 3 (METTL3), full length (from UniProt Q86U44 1-580) (enzyme)”: the binding entry is on record as “binds”.
